Counter-ions that a name gives are not always drawn.
Assay: Particle diameter distribution by dynamic light scattering photon correlation method (Delsa Nano)
Format: physicochemical
Settings: starting organic compound powder before mixing/milling
Text: The term “average particle diameter” used in present specification means a mathematical average diameter (here, defined as the Dav value) in the particle diameter distribution as measured by a dynamic light scattering photon correlation method. The term “50%-diameter” (defined as median diameter or the D50 value) means a certain particle diameter when amount of a larger side becomes equal to amount of a smaller side of the particle diameters divided into two a powder from the certain particle diameter. The term “90%-diameter” (D90 value) means the particle diameter of the particle at the position of 90% when counted from the smallest size zero (minimum) to 100% (maximum) of the particle diameter in the particle diameter distribution as measured by the above-mentioned measurement method. The term “10%-diameter” (D10 value) means the particle diameter of the particle at the position of 10% when counted from the smallest size zero (minimum) to 100% (maximum) of the particle diameter in the particle diameter distribution as measured by the above-mentioned measurement method. The average particle diameter of the organic compound is more preferably in the range of 50 to 400 nm, further more preferably in the range of 100 to 350 nm. The D90 value of the organic compound is more preferably less than 700 nm, further more preferably less than 500 nm.
10 g of turmeric powder (>90% purity of curcuminoid, manufactured by Bio Actives Japan Corp.), 78 g of D-(−)-mannitol (particle diameter distribution in the range of 10 to 300 μm, manufactured by Wako Pure Chemical Industries, Ltd.), 10 g of a sucrose fatty acid ester (trade name of DK Ester SS, manufactured by Dai-Ichi Kogyo Seiyaku Co., Ltd.), 1.7 g of sodium carboxymethyl cellulose (trade name of Cellogen F-3H, manufactured by Dai-Ichi Kogyo Seiyaku Co., Ltd.) and 9 g of purified water were introduced into a 500-mL trimix kneader (manufactured by Inoue MFG, Inc.) and then were mixed and kneaded with keeping the load current of 0.95 to 1.2 A for about 3 hours. The particle diameter distribution of the turmeric powder measured before the process of mixing by the particle diameter distribution measurement instrument (instrument name of Delsa Nano, manufactured by Beckman Coulter Inc.) was as follows: the average particle diameter (Dav)=12820 nm, the value of D10=3793 nm, the value of D50=10530 nm, and the value of D90=25520 nm. […] The particle diameter distribution of the kneaded product measured by the foregoing particle diameter distribution measurement instrument after the dispersion treatment was as follows: the average particle diameter (Dav)=202 nm, the value of D10=78 nm, the value of D50=162 nm, and the value of D90=338 nm.

Particle diameter distribution, D10, before milling: 3225 nm
Particle diameter distribution, D50, before milling: 27320 nm
Particle diameter distribution, D90, before milling: 139600 nm
Particle diameter distribution, Dav (average particle diameter), before milling: 45660 nm
SMILES: CC(C)(C(=O)O)c1ccc(C(O)CCCN2CCC(C(O)(c3ccccc3)c3ccccc3)CC2)cc1 (stereo not shown) [fexofenadine hydrochloride powder, fexofenadine hydrochloride]
